# Screening data

From PubChem BioAssay record AID912 (NCATS, 2007).

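A cell-based FRET test of anthrax lethal toxin entry, tracked through the 460 nm emission signal; the cell line is not named here.
Each compound was tested as a concentration series from about 0.0005 to 40 µM.
The number is the fitted AC50 of the 460 nm signal alone; lower values mean a more potent effect. A falling signal goes with compounds filed as inhibitors or cytotoxic, a rising one with activators or fluorescent compounds (inferred from the filed classes).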

Values are in nM.
Common to all entries: measured here: 460 nm channel.
Part of the compounds only, not a random draw; the main read-out is not listed here.
A potency from a partial, single-point or poor curve is only a rough figure.
The first word of each remark tells which way the curve ran; it can be opposite to the aim of the assay.

SMILES	AC50 (nM)	curve
COc1ccccc1CN1CCC2(CC1)CCN(C(=O)c1ccncc1)CC2	25118	falling, single point
Cc1ccc(-c2noc(C3CCCN(C(=O)c4ccc(F)cc4F)C3)n2)cc1 (centres unmarked)	125.9	falling, full curve, poor fit
OC1CC(c2ccco2)NC2(CCCCC2)C1 (centres unmarked)	50.12	falling, full curve
C#CCSc1nnc(-c2ccccc2)c(=O)[nH]1	25118	rising, single point
CCOc1c(OC)cccc1C1CC(=O)Nc2cc3c(cc21)OCCO3 (centres unmarked)	7943	rising, partial curve
Cc1ccc(-c2cc(C(=O)N3CCN(c4ncccn4)CC3)c3ccccc3n2)cc1	7943	falling, partial curve, poor fit
CCSC1(SCC)N=C(N)C2(C#N)C(c3ccccc3)NC3=C(CCC3)C12C#N (centres unmarked)	10	falling, full curve, poor fit
O=C(O)CCCCCN1C(=O)CSC1=S	5012	rising, single point
CN(C)CCCn1c2c3ccccc3ccc2c2oc(=O)c3ccccc3c21	3162	rising, single point
c1csc(Cc2nn3c(-c4n[nH]c5c4CCC5)nnc3s2)c1	19952	rising, single point
CS(=O)(=O)Nc1cccc(-c2nc(NCc3cccs3)c3ccccc3n2)c1	31622	falling, single point
O=C(O)c1cccc([N+](=O)[O-])c1	31622	falling, single point
N[C@H](CCP(=O)(O)O)C(=O)O	12589	rising, single point
CCC(=O)Oc1cccc(C(=O)Nc2ccc(-c3nnc(-c4ccco4)o3)cc2)c1	10000	falling, single point
Cc1cccc(NC(=O)N[C@@H]2N=C(c3ccccc3)c3ccccc3N(CC(=O)c3ccccc3C)C2=O)c1	10000	falling, partial curve
CS(=O)(=O)Nc1cccc(-c2nc(Nc3ccc(F)cc3)c3ccccc3n2)c1	12589	falling, partial curve
CCOC(=O)C1=C(C)NC2=C(C(=O)CC(C)(C)C2)C1c1cccc(C)n1 (centres unmarked)	12589	rising, single point
O=C(CCC(=O)Nc1ccc(Oc2ccccc2)cc1)NCCO	316.2	rising, full curve
N[C@@H](Cn1cc(I)c(=O)n(Cc2ccc(C(=O)O)cc2)c1=O)C(=O)O	631	falling, full curve, poor fit
COC(=O)[C@@]1(Cc2ccc(OC)cc2)[C@H]2c3cc(C(=O)N(C)C)n(Cc4ccc(Cl)c(C(F)(F)F)c4)c3C[C@H]2CN1C(=O)c1ccccc1	31622	falling, single point
CC[C@H](NC(=O)c1c(C)c(-c2ccccc2)nc2ccccc12)c1ccccc1	251.2	falling, full curve
Clc1ccc(OCc2nn3c(-c4ccccc4)nnc3s2)c(Cl)c1	3981	falling, single point
CN1CCN(c2ncc3nc(-c4ccc(F)cc4)c(=O)n(Cc4cccs4)c3n2)CC1	1585	rising, full curve
O=c1c(-c2cccc(F)c2)nc2cncnc2n1Cc1ccccc1Cl	25118	rising, single point
C=C(C)COc1ccc(-c2[nH]ncc2Oc2ccccc2OCC)c(O)c1	31622	falling, single point
COc1ccc(C(=O)OC2C[C@H]3CC[C@@H](C2)N3C)cc1OC (some centres unmarked)	1000	rising, partial curve
CC(Sc1nc2ccccc2s1)C(=O)N1CCOCC1 (centres unmarked)	5012	falling, single point
O=C(Nc1c(C(=O)O)[nH]c2ccccc12)NC1CCCCC1	31622	falling, single point
O=C(CCCn1c(=S)[nH]c2cc3c(cc2c1=O)OCO3)N1CCN(c2ccccn2)CC1	5012	rising, full curve
Cc1cc(C)cc(N(CC(=O)Nc2cccc(C)n2)S(=O)(=O)c2c(C)noc2C)c1	19952	falling, single point
CC(C)NC(=O)N1CC2(CCN(C(=O)c3cc(C(F)(F)F)cc(C(F)(F)F)c3)CC2)C1	794.3	rising, full curve, poor fit
CCN(CC)S(=O)(=O)c1ccc(-c2nnc3sc4cccc(C)c4n23)cc1	12589	falling, partial curve
COc1cccc(-c2nc(C(N)=O)c3[nH]c(=O)n(-c4cccc(Cl)c4)c3n2)c1OC	12589	falling, partial curve, poor fit
CCN(CCO)Cc1cn[nH]c1-c1ccc(C)c(C)c1	12589	falling, partial curve
COC(=O)c1cc(NC(=O)CSc2nnc(CN3CCOCC3)n2C)ccc1Cl	125.9	falling, partial curve, poor fit
CC(C)C[C@H]1C(=O)N2CCC[C@@H]2[C@]2(O)O[C@](NC(=O)[C@H]3C=C4c5cccc6[nH]cc(c56)C[C@H]4N(C)C3)(C(C)C)C(=O)N12	3.162	rising, full curve, poor fit
O=C(Nc1ccc(Br)c(Cl)c1)c1ccco1	7943	falling, partial curve
C1COC(NC(C2CC2)C2CC2)=N1	12589	falling, single point
Cc1noc(/C=C/N(C)C)c1S(=O)(=O)N1CCCC(C(=O)NCc2ccc(Cl)cc2)C1 (centres unmarked)	31622	rising, single point
CCCCn1cnc2c1c(=O)n(CC(=O)c1cc(C)n(C)c1C)c(=O)n2CC(C)C	10000	rising, partial curve
CCN(CCCNC(=O)COc1cc(=O)n(CC)c2ccccc12)c1ccccc1	10000	rising, single point
Cc1cc(=O)c2c(O)c(O)ccc2o1	15848	rising, single point
Cc1cccc(-c2noc(CN(C)S(=O)(=O)c3cc(Cl)ccc3Cl)n2)c1	3162	falling, partial curve
COc1cccc(CN2CCN(C(=O)c3cccc4ccccc34)CC2)c1OC	12589	rising, partial curve, poor fit
CCC(=O)NCCC(c1ccco1)c1ccccc1OC (centres unmarked)	10	rising, full curve, poor fit
Cc1ccc(OCc2nnc(SCC(=O)Nc3ccc4c(c3)OCCO4)n2Cc2ccco2)cc1	31622	falling, single point
CC1=Nc2ncnn2C(c2ccccc2)/C1=N\O (centres unmarked)	5012	rising, single point
CCc1cc2c(nc1CC)CCN(CC/C(C)=N/O[C@@H](C)c1cn([C@H](CO)Cc3ccccc3)nn1)C2	316.2	rising, partial curve
CC1=C(/C=C/C(C)=C/C=C/C(C)=C\C=O)C(C)(C)CCC1	12589	falling, full curve
CC1(C)CC(=O)C2=C(C1)N(CCN1CCOCC1)C1=C(C(=O)CC(C)(C)C1)C2c1cccc(Cl)c1	10000	rising, partial curve
c1cnc(N2CCN(Cc3ccc4c(c3)OCO4)CC2)nc1	1.995	rising, full curve, poor fit
CCOc1cc(C(=O)NCC2CCCO2)cc(OCC)c1OCC (centres unmarked)	631	falling, single point
CCOC(=O)c1c(-c2ccccc2)csc1NC(=O)CSc1nnnn1C	158.5	falling, partial curve
Cc1ccc(C(C)C)c(OCCn2c(=O)oc3ccccc32)c1	10000	falling, partial curve
CC(C)C(=O)N1CCC(CN=Cc2c(O)n(C3CCCCC3)c(=O)n(C3CCCCC3)c2=O)CC1	15848	falling, single point
CCc1ccc2[nH]c(=O)c(CN(Cc3ccccc3OC)Cc3nnnn3Cc3ccco3)cc2c1	10000	falling, single point
CN[C@@H]1C[C@@H](c2ccc(Cl)c(Cl)c2)c2ccccc21	31622	falling, single point

6 of the entries, repeated:

* COc1ccccc1CN1CCC2(CC1)CCN(C(=O)c1ccncc1)CC2 : AC50 25118 nM (falling, single point)
* Cc1ccc(-c2cc(C(=O)N3CCN(c4ncccn4)CC3)c3ccccc3n2)cc1 : AC50 7943 nM (falling, partial curve, poor fit)
* C=C(C)COc1ccc(-c2[nH]ncc2Oc2ccccc2OCC)c(O)c1 : AC50 31622 nM (falling, single point)
* N[C@@H](Cn1cc(I)c(=O)n(Cc2ccc(C(=O)O)cc2)c1=O)C(=O)O : AC50 631 nM (falling, full curve, poor fit)
* CCc1ccc2[nH]c(=O)c(CN(Cc3ccccc3OC)Cc3nnnn3Cc3ccco3)cc2c1 : AC50 10000 nM (falling, single point)
* Cc1cccc(NC(=O)N[C@@H]2N=C(c3ccccc3)c3ccccc3N(CC(=O)c3ccccc3C)C2=O)c1 : AC50 10000 nM (falling, partial curve)